These are yes or no findings as the source states them, for the method shown. Binding seen in cells or lysates may run through a third protein. Some entries that bind do so weakly or less than the wild type.
What was measured:
[1] = target: T1, F-box and leucine rich repeat protein 19 (mouse (endogenous in BALB/c lung tissue and MLE-12 cells)) (UniProt Q6PB97); assay: co-IP; lysate of SPN mouse lung tissue in RIPA buffer; anti-FBXL19 (IgG as control) at 4 C overnight, protein A/G beads, Western blot
T1 sequence: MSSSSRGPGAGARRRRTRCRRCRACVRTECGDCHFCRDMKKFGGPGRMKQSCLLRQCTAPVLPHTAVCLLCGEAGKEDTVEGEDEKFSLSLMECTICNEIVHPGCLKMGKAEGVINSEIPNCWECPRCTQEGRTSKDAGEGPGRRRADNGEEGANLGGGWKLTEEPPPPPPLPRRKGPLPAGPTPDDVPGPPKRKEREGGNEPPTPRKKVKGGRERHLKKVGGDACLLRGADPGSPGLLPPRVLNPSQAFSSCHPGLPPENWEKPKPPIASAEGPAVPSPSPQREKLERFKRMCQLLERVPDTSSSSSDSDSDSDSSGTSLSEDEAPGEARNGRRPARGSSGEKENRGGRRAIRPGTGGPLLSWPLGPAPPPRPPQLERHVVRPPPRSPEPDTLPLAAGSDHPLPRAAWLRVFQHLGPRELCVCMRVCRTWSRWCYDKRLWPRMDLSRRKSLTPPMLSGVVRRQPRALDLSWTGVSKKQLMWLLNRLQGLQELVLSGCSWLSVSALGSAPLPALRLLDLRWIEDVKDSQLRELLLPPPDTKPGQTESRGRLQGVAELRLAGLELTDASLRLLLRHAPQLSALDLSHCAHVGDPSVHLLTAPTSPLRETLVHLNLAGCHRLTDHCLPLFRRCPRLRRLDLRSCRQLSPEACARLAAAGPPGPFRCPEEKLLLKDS

[2] = target: T1, F-box and leucine rich repeat protein 19 (mouse (endogenous in BALB/c lung tissue and MLE-12 cells)); assay: co-IP; lysate of untreated MLE-12 cells in RIPA buffer; anti-FBXL19 (IgG as control) at 4 C overnight, protein A/G beads, Western blot

B1: forkhead box M1 (protein, UniProt O08696 1-760)
chain: MRTSPRRPLILKRRRLPLPVQNAPSETSEEEAKRSPAQPEPAPAQASQEVAESSSCKFPAGIKIINHPTTPNTQVVAIPSNADIQSIITALTAKGKESGTSGPNRFILISSGGPSSHPSQPQAHSSRDSKRAEVITETLGPKPAAKGVPVPKPPGAPPRQRQESYAGGEAAGCTLDNSLTNIQWLGKMSSDGLGPCSVKQELEEKENCHLEQNRVKVEEPSGVSTSWQDSVSERPPYSYMAMIQFAINSTERKRMTLKDIYTWIEDHFPYFKHIAKPGWKNSIRHNLSLHDMFVRETSANGKVSFWTIHPSANRHLTLDQVFKPLEPGSPQSPEHLESQQKRPNPELHRNVTIKTEIPLGARRKMKPLLPRVSSYLEPIQFPVNQSLVLQPSVKVPFRLAASLMSSELARHSKRVRIAPKVLLSSEGIAPLPATEPPKEEKPLLGGEGLLPLLPIQSIKEEEMQPEEDIAHLERPIKVESPPLEEWPSPCASLKEELSNSWEDSSCSPTPKPKKSYCGLKSPTRCVSEMLVTKRREKREVSRSRRKQHLQPPCLDEPDLFFPEDSSTFRPAVELLAESSEPAPHLSCPQEEGGPFKTPIKETLPVSSTPSKSVLSRDPESWRLTPPAKVGGLDFSPVRTPQGAFGLLPDSLGLMELNTTPLKSGPLFDSPRELLNSEPFDLASDPFGSPPPPHVEGPKPGSPELQIPSLSANRSLTEGLVLDTMNDSLSKILLDISFPGLEEDPLGPDNINWSQFIPELR
[1]
  binding: binds
[2]
  binding: binds
